# Results from PubChem BioAssay AID256 (DTP/NCI, 2004).
# The list shows only some results of the screen, not a fair sample: it is rich in T/C values a quarter to a half above the control, in often repeated tests (any T/C) and in doses without a T/C. Further doses and runs are listed elsewhere. T/C gives the treated animals as a percentage of the vehicle group. Some doses have a count of surviving animals in place of a T/C: the source files T/C as zero there, which appears to mark a toxic dose or a test without result, not a measured value. Some doses without a T/C left all or most animals alive at the check, yet need not have been tolerated: the source hardly ever lists a survival T/C far under the control, and the zero likely stands for such cases as well. Survivors were counted at the toxicity check, usually on the fifth day, unless a day is given; later deaths do not show. Schedules are NCI's codes, taken here to give the interval after Q, in days (D) or hours (H), and the number of doses after X. Some molecules as drawn cover several salts, stereoisomers or complexes of the source; a dose is that of the sample tested. Marks such as (2×) say how often a value occurs here. Some entries hold several experiments; their values stand side by side, smallest first. Where survival is the endpoint, this PubChem deposit counts one and a half times the control or more as active, and values a quarter to a half above the control carry no call in these data; other NCI protocols may use other cut-offs. Some T/C values are followed by the survivors on the day toxicity was checked, most often the fifth; without a count, all were alive then.
# System: CD2F1 mice, L1210 leukemia ip, survival T/C
# Assay: NCI In Vivo Anticancer Drug Screen. Data for tumor model L1210 Leukemia (intraperitoneal) in CD2F1 (CDF1) mice
# Conditions: higher T/C = longer survival
# Outline: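 Tumor-bearing mice (transplanted tumor) were split into treated and vehicle control groups, and the measured endpoint of each treated group was divided by that of its vehicle controls.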
# [1] = T/C endpoint: mean survival time, dose: 54.0 mg/kg/injection, schedule: Q01DX001 (iv), vehicle: saline
smiles,measurement,setting,value
O=C1c2ccccc2C(=O)c2c(NCCNCCO)ccc(NCCNCCO)c21,T/C,"T/C endpoint: mean survival time, dose: 1.0 mg/kg/injection, schedule: Q01DX009 (ip), vehicle: clinical formulation",131 % of control
same,T/C,"T/C endpoint: mean survival time, dose: 1.0 mg/kg/injection, schedule: Q01DX009 (ip), vehicle: saline",130 % of control
same,T/C,"T/C endpoint: mean survival time, dose: 1.75 mg/kg/injection, schedule: Q01DX009 (ip), vehicle: Klucel (hydroxypropylcellulose) (HPC)",133 % of control [5 of 6 alive]
same,T/C,"T/C endpoint: mean survival time, dose: 2.0 mg/kg/injection, schedule: Q01DX009 (ip), vehicle: acid diluted with saline",148 % of control
same,T/C,"T/C endpoint: mean survival time, dose: 2.0 mg/kg/injection, schedule: Q01DX009 (ip), vehicle: clinical formulation",139 % of control
same,T/C,"T/C endpoint: mean survival time, dose: 2.0 mg/kg/injection, schedule: Q01DX009 (ip), vehicle: water",126 % of control
same,T/C,"T/C endpoint: mean survival time, dose: 2.5 mg/kg/injection, schedule: Q01DX009 (ip), vehicle: saline",140 % of control
same,T/C,"T/C endpoint: mean survival time, dose: 4.0 mg/kg/injection, schedule: Q01DX005 (ip), vehicle: saline",131 % of control
same,T/C,"T/C endpoint: mean survival time, dose: 4.0 mg/kg/injection, schedule: Q01DX009 (ip), vehicle: water",146 % of control
same,T/C,"T/C endpoint: mean survival time, dose: 8.0 mg/kg/injection, schedule: Q01DX005 (ip), vehicle: saline",149 % of control
same,T/C,"T/C endpoint: mean survival time, dose: 8.0 mg/kg/injection, schedule: Q01DX005 (iv), vehicle: saline",132 % of control
same,T/C,"T/C endpoint: mean survival time, dose: 8.0 mg/kg/injection, schedule: Q04DX003 (ip), vehicle: saline",134 % of control
same,T/C,"T/C endpoint: mean survival time, dose: 16.0 mg/kg/injection, schedule: Q01DX005 (iv), vehicle: saline, evaluated on day 30",147 % of control
same,T/C,"T/C endpoint: mean survival time, dose: 16.0 mg/kg/injection, schedule: Q01DX005 (iv), vehicle: saline, evaluated on day 60",148 % of control
same,T/C,"T/C endpoint: mean survival time, dose: 16.0 mg/kg/injection, schedule: Q01DX009 (ip), vehicle: saline with Tween-80",131 % of control
same,T/C,"T/C endpoint: mean survival time, dose: 16.0 mg/kg/injection, schedule: Q04DX003 (ip), vehicle: saline",137 % of control
same,T/C,"T/C endpoint: mean survival time, dose: 19.4 mg/kg/injection, schedule: Q01DX001 (ip), vehicle: saline",136 % of control
same,T/C,"T/C endpoint: mean survival time, dose: 21.0 mg/kg/injection, schedule: Q01DX009 (ip), vehicle: saline",126 % of control
same,survivor count,"T/C endpoint: mean survival time, dose: 32.0 mg/kg/injection, schedule: Q01DX005 (iv), vehicle: clinical formulation",4 of 8
same,survivor count,"T/C endpoint: mean survival time, dose: 32.0 mg/kg/injection, schedule: Q01DX005 (iv), vehicle: saline",4 of 8
same,survivor count,"T/C endpoint: mean survival time, dose: 32.0 mg/kg/injection, schedule: Q01DX009 (ip), vehicle: acid diluted with saline",6 of 6 (2×)
same,T/C,"T/C endpoint: mean survival time, dose: 32.0 mg/kg/injection, schedule: Q01DX009 (ip), vehicle: water",128 % of control
same,survivor count,"T/C endpoint: mean survival time, dose: 32.0 mg/kg/injection, schedule: Q04DX003 (ip), vehicle: water",5 of 6
same,T/C,"T/C endpoint: mean survival time, dose: 32.0 mg/kg/injection, schedule: Q04DX003 (iv), vehicle: saline",142 % of control
same,T/C,"T/C endpoint: mean survival time, dose: 42.0 mg/kg/injection, schedule: Q01DX009 (ip), vehicle: Klucel (hydroxypropylcellulose) (HPC)",134 % of control
same,T/C,[1],129 % of control [9 of 10 alive]
same,survivor count,[1],6 of 6
same,T/C,"T/C endpoint: mean survival time, dose: 62.5 mg/kg/injection, schedule: Q01DX009 (ip), vehicle: Klucel (hydroxypropylcellulose) (HPC)",134 % of control
same,survivor count,"T/C endpoint: mean survival time, dose: 64.0 mg/kg/injection, schedule: Q01DX005 (iv), vehicle: saline",0 of 10
same,survivor count,"T/C endpoint: mean survival time, dose: 64.0 mg/kg/injection, schedule: Q01DX009 (ip), vehicle: saline with Tween-80",4 of 6
same,survivor count,"T/C endpoint: mean survival time, dose: 64.0 mg/kg/injection, schedule: Q01DX009 (ip), vehicle: water",5 of 6
same,survivor count,"T/C endpoint: mean survival time, dose: 64.0 mg/kg/injection, schedule: Q04DX003 (ip), vehicle: water",4 of 6
same,survivor count,"T/C endpoint: mean survival time, dose: 64.0 mg/kg/injection, schedule: Q04DX003 (iv), vehicle: saline",0 of 10
same,T/C,"T/C endpoint: mean survival time, dose: 90.0 mg/kg/injection, schedule: Q01DX001 (ip), vehicle: saline",136 % of control [7 of 8 alive]
same,survivor count,"T/C endpoint: mean survival time, dose: 90.0 mg/kg/injection, schedule: Q01DX001 (iv), vehicle: saline",2 of 10
same,survivor count,"T/C endpoint: mean survival time, dose: 128.0 mg/kg/injection, schedule: Q01DX009 (ip), vehicle: saline with Tween-80",2 of 6
same,survivor count,"T/C endpoint: mean survival time, dose: 128.0 mg/kg/injection, schedule: Q04DX003 (ip), vehicle: water",0 of 6
same,survivor count,"T/C endpoint: mean survival time, dose: 128.0 mg/kg/injection, schedule: Q04DX003 (iv), vehicle: saline",0 of 10
same,survivor count,"T/C endpoint: mean survival time, dose: 250.0 mg/kg/injection, schedule: Q01DX001 (ip), vehicle: saline",2 of 8
same,T/C,"T/C endpoint: median survival time, dose: 0.5 mg/kg/injection, schedule: Q01DX009 (ip), vehicle: water",129 % of control
same,T/C,"T/C endpoint: median survival time, dose: 1.0 mg/kg/injection, schedule: Q01DX009 (ip), vehicle: clinical formulation",130 % of control
same,T/C,"T/C endpoint: median survival time, dose: 1.0 mg/kg/injection, schedule: Q01DX009 (ip), vehicle: saline",141 % of control
same,T/C,"T/C endpoint: median survival time, dose: 1.0 mg/kg/injection, schedule: Q01DX009 (ip), vehicle: water",134 % of control
same,T/C,"T/C endpoint: median survival time, dose: 2.0 mg/kg/injection, schedule: Q01DX009 (ip), vehicle: Klucel (hydroxypropylcellulose) (HPC)",126 % of control
same,T/C,"T/C endpoint: median survival time, dose: 2.0 mg/kg/injection, schedule: Q01DX009 (ip), vehicle: clinical formulation",141 % of control
same,T/C,"T/C endpoint: median survival time, dose: 2.0 mg/kg/injection, schedule: Q01DX009 (ip), vehicle: water",149 % of control
same,T/C,"T/C endpoint: median survival time, dose: 4.0 mg/kg/injection, schedule: Q01DX009 (ip), vehicle: Klucel (hydroxypropylcellulose) (HPC)",137 % of control
same,T/C,"T/C endpoint: median survival time, dose: 8.0 mg/kg/injection, schedule: Q01DX005 (iv), vehicle: clinical formulation",127 % of control
same,T/C,"T/C endpoint: median survival time, dose: 8.0 mg/kg/injection, schedule: Q01DX005 (iv), vehicle: water",128 % of control
same,T/C,"T/C endpoint: median survival time, dose: 8.0 mg/kg/injection, schedule: Q01DX009 (sc), vehicle: Klucel (hydroxypropylcellulose) (HPC), evaluated on day 30",131 and 138 % of control
same,T/C,"T/C endpoint: median survival time, dose: 8.0 mg/kg/injection, schedule: Q01DX009 (sc), vehicle: Klucel (hydroxypropylcellulose) (HPC), evaluated on day 60",139 % of control
same,T/C,"T/C endpoint: median survival time, dose: 8.0 mg/kg/injection, schedule: Q01DX009 (sc), vehicle: water",130 % of control
same,T/C,"T/C endpoint: median survival time, dose: 16.0 mg/kg/injection, schedule: Q01DX005 (iv), vehicle: clinical formulation",144 % of control
same,T/C,"T/C endpoint: median survival time, dose: 16.0 mg/kg/injection, schedule: Q01DX009 (sc), vehicle: Klucel (hydroxypropylcellulose) (HPC)",140 % of control
same,T/C,"T/C endpoint: median survival time, dose: 16.0 mg/kg/injection, schedule: Q01DX009 (sc), vehicle: saline",130 % of control
same,T/C,"T/C endpoint: median survival time, dose: 32.0 mg/kg/injection, schedule: Q01DX009 (ip), vehicle: saline",137 % of control
same,T/C,"T/C endpoint: median survival time, dose: 32.0 mg/kg/injection, schedule: Q01DX009 (sc), vehicle: saline",147 % of control
same,survivor count,"T/C endpoint: median survival time, dose: 64.0 mg/kg/injection, schedule: Q01DX005 (iv), vehicle: clinical formulation",0 of 10
same,survivor count,"T/C endpoint: median survival time, dose: 64.0 mg/kg/injection, schedule: Q01DX005 (iv), vehicle: water",1 of 10
same,survivor count,"T/C endpoint: median survival time, dose: 64.0 mg/kg/injection, schedule: Q01DX009 (ip), vehicle: Klucel (hydroxypropylcellulose) (HPC)",4 of 6 and 5 of 6
same,survivor count,"T/C endpoint: median survival time, dose: 64.0 mg/kg/injection, schedule: Q01DX009 (ip), vehicle: clinical formulation",10 of 10
same,survivor count,"T/C endpoint: median survival time, dose: 64.0 mg/kg/injection, schedule: Q01DX009 (ip), vehicle: water",10 of 10
same,T/C,"T/C endpoint: median survival time, dose: 64.0 mg/kg/injection, schedule: Q01DX009 (sc), vehicle: saline",147 % of control
same,survivor count,"T/C endpoint: median survival time, dose: 128.0 mg/kg/injection, schedule: Q01DX009 (ip), vehicle: Klucel (hydroxypropylcellulose) (HPC)",0 of 6
same,survivor count,"T/C endpoint: median survival time, dose: 128.0 mg/kg/injection, schedule: Q01DX009 (ip), vehicle: clinical formulation",8 of 10
same,survivor count,"T/C endpoint: median survival time, dose: 128.0 mg/kg/injection, schedule: Q01DX009 (ip), vehicle: saline",5 of 6
same,survivor count,"T/C endpoint: median survival time, dose: 128.0 mg/kg/injection, schedule: Q01DX009 (ip), vehicle: water",7 of 10
same,survivor count,"T/C endpoint: median survival time, dose: 128.0 mg/kg/injection, schedule: Q01DX009 (sc), vehicle: Klucel (hydroxypropylcellulose) (HPC)",5 of 6 and 9 of 10
same,T/C,"T/C endpoint: median survival time, dose: 128.0 mg/kg/injection, schedule: Q01DX009 (sc), vehicle: saline",128 % of control
same,survivor count,"T/C endpoint: median survival time, dose: 128.0 mg/kg/injection, schedule: Q01DX009 (sc), vehicle: water",9 of 10
same,survivor count,"T/C endpoint: median survival time, dose: 256.0 mg/kg/injection, schedule: Q01DX005 (oral), vehicle: Klucel (hydroxypropylcellulose) (HPC)",3 of 6
same,survivor count,"T/C endpoint: median survival time, dose: 512.0 mg/kg/injection, schedule: Q01DX005 (oral), vehicle: Klucel (hydroxypropylcellulose) (HPC)",5 of 6 and 6 of 6
same,survivor count,"T/C endpoint: median survival time, dose: 1024.0 mg/kg/injection, schedule: Q01DX005 (oral), vehicle: Klucel (hydroxypropylcellulose) (HPC)",6 of 6
